Laboratory results taken from publication PMC4196756.
No constants are given. Whether binding was seen depends on the method and setting. Binding seen in cells or lysates may run through a third protein. Some entries that bind do so weakly or less than the wild type. Sequences can lack the tags named with a protein.

The chains behind the UniProt entries cited, without tags or fusion partners.
UniProt Q06330: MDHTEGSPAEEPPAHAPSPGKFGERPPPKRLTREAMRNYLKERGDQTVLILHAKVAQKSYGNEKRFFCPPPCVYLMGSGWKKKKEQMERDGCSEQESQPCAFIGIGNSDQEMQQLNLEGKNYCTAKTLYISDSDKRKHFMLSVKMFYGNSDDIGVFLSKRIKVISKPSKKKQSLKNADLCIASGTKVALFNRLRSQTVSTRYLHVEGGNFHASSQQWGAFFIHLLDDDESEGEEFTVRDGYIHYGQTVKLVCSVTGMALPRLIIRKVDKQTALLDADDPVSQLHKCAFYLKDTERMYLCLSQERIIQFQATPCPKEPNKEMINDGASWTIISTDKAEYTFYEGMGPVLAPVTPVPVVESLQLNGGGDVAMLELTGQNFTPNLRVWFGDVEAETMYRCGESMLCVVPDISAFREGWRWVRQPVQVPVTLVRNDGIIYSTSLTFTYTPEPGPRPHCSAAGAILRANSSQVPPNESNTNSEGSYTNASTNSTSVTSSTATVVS

Target: RBP-Jκ (recombination signal binding protein for immunoglobulin kappa J region), full-length, with HA tag (human) (UniProt Q06330)
Assay: co-IP; 293T cells co-transfected with RBP-Jκ (HA tag) and wt or mt Notch2 (myc tag); lysed after 48 h; IP with HA antibody, protein G Plus-Agarose; western blotting

B1: mutant-type (truncate) Notch2 intracellular domain, 1699-2435 aa, with six-repeating myc tag (domain or fragment, UniProt Q04721 1699-2435)
chain: MAKRKRKHGSLWLPEGFTLRRDASNHKRREPVGQDAVGLKNLSVQVSEANLIGTGTSEHWVDDEGPQPKKVKAEDEALLSEEDDPIDRRPWTQQHLEAADIRRTPSLALTPPQAEQEVDVLDVNVRGPDGCTPLMLASLRGGSSDLSDEDEDAEDSSANIITDLVYQGASLQAQTDRTGEMALHLAARYSRADAAKRLLDAGADANAQDNMGRCPLHAAVAADAQGVFQILIRNRVTDLDARMNDGTTPLILAARLAVEGMVAELINCQADVNAVDDHGKSALHWAAAVNNVEATLLLLKNGANRDMQDNKEETPLFLAAREGSYEAAKILLDHFANRDITDHMDRLPRDVARDRMHHDIVRLLDEYNVTPSPPGTVLTSALSPVICGPNRSFLSLKHTPMGKKSRRPSAKSTMPTSLPNLAKEAKDAKGSRRKKSLSEKVQLSESSVTLSPVDSLESPHTYVSDTTSSPMITSPGILQASPNPMLATAAPPAPVHAQHALSFSNLHEMQPLAHGASTVLPSVSQLLSHHHIVSPGSGSAGSLSRLHPVPVPADWMNRMEVNETQYNEMFGMVLAPAEGTHPGIAPQSRPPEGKHITTPREPLPPIVTFQLIPKGSIAQPAGAPQPQSTCPPAVAGPLPTMYQIPEMARLPSVAFPTAMMPQQDGQVAQTILPAYHPFPASVGKYPTPPSQHSYASSNAAERTPSHSGHLQGEHPYLTPSPESPDQWSSSSPHSASD
- binding: binds
